# Source: PubChem BioAssay AID540256 (National Center for Advancing Translational Sciences (NCATS), 2011)
# The campaign covered roughly 300,000 compounds. About 3,700 (1.2%) were called active. The shares of active, inactive and inconclusive entries below differ from those in the screen. Calls follow the shape of the full dose curve; tested in HEK293 cells. Potencies of inconclusive entries are doubtful fits and often do not repeat.
# Test: qHTS for Inhibitors of binding or entry into cells for Lassa Virus; also: nearly all actives have a fitted effect of over 50% in size
# Conditions: Lassa virus pseudotype entry inhibition, cell reporter; activity change, negative = inhibition: at 37.9 µM (top of the series) unless noted
# % is scaled to controls: 0 for no effect and ±100 for the full control effect; potency is read from the fitted curve at half-maximal effect.
Structure (SMILES),Potency,"activity change, negative = inhibition"
S=c1[nH]ccn1CCc1ccccc1,"inconclusive: 6.31 µM [inhibitor, single point]",
COc1ccc(CN(C(=O)c2oc3ccccc3c2C)C2CCS(=O)(=O)C2)cc1 (centres undefined),"inconclusive: 10 µM [inhibitor, partial curve, poor fit]",
O=C(c1cc2ccccc2c(=O)o1)N1CCCc2ccccc21,inactive,
CCCCCCC(O)(CCN1CCCCC1)c1ccccc1 (centres undefined),"inconclusive: 17.8 µM [inhibitor, partial curve, poor fit]",
Cc1ccc(=O)n(-c2ccccc2)c1,"inconclusive: 0.0366 µM [activator, full curve, poor fit]",
Cc1ccc(-c2nn3c(C)nnc3c3ccccc23)cc1S(=O)(=O)NCc1ccco1,"inconclusive: 16.4 µM [inhibitor, partial curve, poor fit]",
CC1(C)Cc2cccc(OCC(O)CN3CCN(c4ccccn4)CC3)c2O1 (centres undefined),inactive,
CN(C(=O)c1ccc2c(Cl)c3c(nc2c1)CCC3)c1ccccc1F,inactive,
Cc1ccc(C(CCN)c2ccco2)cc1 (centres undefined),inactive,
c1ccc(COc2cccc(CNCc3cccnc3)c2)cc1,inactive,
COc1ccc(C2CC(c3ccccc3O)=NN2c2ccccc2)cc1 (centres undefined),inactive,
COc1ccc(O)c(C(=O)c2cc(C(=O)NCCc3ccccc3)c(=O)n(CCc3ccccc3)c2)c1,"inconclusive: 10 µM [inhibitor, partial curve, poor fit]",
CC(=O)c1cccc(NC(=O)N2CCCC2C(=O)NCc2ccccc2)c1 (centres undefined),"inconclusive: 4.11 µM [activator, full curve, poor fit]",
COc1ccc(S(=O)(=O)N2CCNCC2)cc1,inactive,
Cc1ccc(-c2ccc(/C=N/NC(=O)CN3CCOCC3)o2)cc1[N+](=O)[O-],"inconclusive: 10 µM [inhibitor, partial curve, poor fit]",
Cc1ccc(SCC(=O)NCCN2C(=O)CSC2=O)cc1C,"inconclusive: 14.6 µM [activator, partial curve, poor fit]",
COc1ccc(Cn2c(N)c(C#N)c3nc4ccccc4nc32)cc1OC,"inconclusive: 6.51 µM [inhibitor, partial curve, poor fit]",
COc1cccc(C(=O)COc2ccc(NC(=O)c3ccccc3)cc2)c1,inactive,
COC1C(CO)OC(n2c3c(Cl)cccc3c3c4c(c5c6cccc(Cl)c6[nH]c5c32)C(=O)NC4=O)C(O)C1O (centres undefined),"inconclusive: 1.26 µM [inhibitor, single point]",
Cc1[nH]nc(-c2ccc(OCc3cnn(-c4ccccc4)c3)cc2O)c1Oc1ccc(F)cc1,inactive,
COC(=O)[C@H](Cc1ccccc1)NC(=O)N1CCCCC1,"inconclusive: 6.31 µM [inhibitor, single point]",
O=C(NC1CCN(C(=O)c2cccc([N+](=O)[O-])c2)CC1)c1ccccc1,inactive,
Cc1ccc(S(=O)(=O)c2cn(CC(=O)Nc3cccc(C)c3)c3cc4c(cc3c2=O)OCO4)cc1,inactive,

Structure (SMILES),Potency,"activity change, negative = inhibition"
Cc1ccc(/C=C/C(=O)NCCc2c[nH]c3ccccc23)o1,inactive,
O=C(Nc1ccccc1C(=O)NCCN1CCOCC1)c1cccc([N+](=O)[O-])c1,"inconclusive: 6.31 µM [inhibitor, single point]",
COc1ccc(-c2csc(NC(=O)CS(=O)(=O)c3ccc(F)cc3)n2)cc1OC,"inconclusive: 35.5 µM [inhibitor, single point]",
Cc1sc(NC(=O)c2ccco2)c(CN2CCN(Cc3ccccc3)CC2)c1C,"inconclusive: 35.5 µM [inhibitor, single point]",
O=C(NCCN1CCCC1)c1cccc(Cl)c1,inactive,
O=C(CNC(=O)c1ccc(S(=O)(=O)N2CCCC2)cc1)N/N=C/c1ccc(Cl)cc1Cl,"inconclusive: 22.4 µM [inhibitor, partial curve, poor fit]",
O=C(Nc1cc(-c2ccccc2)[nH]n1)c1ccccc1F,"inconclusive: 35.5 µM [inhibitor, single point]",
O=C(CC1C(=O)NCCN1Cc1ccc(-c2ccccc2)cc1)NCCc1ccccn1 (centres undefined),"inconclusive: 6.31 µM [inhibitor, single point]",
Brc1cccc(-c2nnc(-c3ccccc3)o2)c1,"inconclusive: 0.206 µM [inhibitor, single point]",
CCOc1ccc(Nc2oc(/C=C/c3cccc(OC)c3)nc2C#N)cc1,inactive,
Clc1cccc(-c2cc3nc4c(c(N5CCN(c6cnccn6)CC5)n3n2)CCCC4)c1,inactive,
Cc1cccc(NC(=O)c2sc3nc(N)c(C#N)cc3c2N)c1,"inconclusive: 3.16 µM [activator, partial curve, poor fit]",
COc1cccc2cc(C(=O)C3=C(O)C(=O)N(CCN(C)C)C3c3ccc(F)cc3)oc12 (centres undefined),"inconclusive: 0.103 µM [inhibitor, full curve, poor fit]",
CCOc1ccc(S(=O)(=O)N2CCN(c3ccc(OC)cc3)CC2)c2cccnc12,"inconclusive: 0.891 µM [inhibitor, full curve, poor fit]",
O=c1ccc(S(=O)(=O)N2CCC(Cc3ccccc3)CC2)c[nH]1,"inconclusive: 0.58 µM [inhibitor, partial curve, poor fit]",
Cc1ccc(S(=O)(=O)Cn2nnnc2C(C(C)C)N2CCc3ccccc3C2)cc1 (centres undefined),"inconclusive: 29.1 µM [inhibitor, single point]",
CCCOc1ccc(N)cc1N,"inconclusive: 5.01 µM [inhibitor, full curve]",
Cc1ccccc1N1C(=O)CC(N(O)c2ccccc2)C1=O (centres undefined),"inconclusive: 0.58 µM [inhibitor, full curve, poor fit]",
CC(=Nc1cccc(C)c1)c1sc2ccccc2c1O,inactive,
Cc1ccccc1NC(=O)c1nc[nH]c1C(=O)NCc1ccccc1,"inconclusive: 4.47 µM [inhibitor, full curve, poor fit]",
Cc1c(Cl)cccc1Nc1nc2ccc(C(=O)c3ccccc3)cc2n2cnnc12,"inconclusive: 6.31 µM [inhibitor, single point]",
COc1ccccc1NS(=O)(=O)c1cc(C(=O)NCC(c2ccco2)N2CCCCC2)ccc1C (centres undefined),"inconclusive: 12.6 µM [inhibitor, partial curve, poor fit]",
Cc1ccc(NC(=O)C2C3/C=C\CCCCC32)cc1 (centres undefined),inactive,

# Sorted by length of the SMILES (rising): part of the list above.
Structure (SMILES),Potency,"activity change, negative = inhibition"
CC(=Nc1cccc(C)c1)c1sc2ccccc2c1O,inactive,
Cc1cccc(NC(=O)c2sc3nc(N)c(C#N)cc3c2N)c1,"inconclusive: 3.16 µM [activator, partial curve, poor fit]",
O=C(CNC(=O)c1ccc(S(=O)(=O)N2CCCC2)cc1)N/N=C/c1ccc(Cl)cc1Cl,"inconclusive: 22.4 µM [inhibitor, partial curve, poor fit]",

# The list goes on:

Structure (SMILES),Potency,"activity change, negative = inhibition"
Nc1c2ccccc2nc2ccccc12,"inconclusive: 0.1 µM [inhibitor, full curve, poor fit]",
Cc1cc(Cl)ccc1NC(=S)N1CCN(Cc2ccc3c(c2)OCO3)CC1,"inconclusive: 6.51 µM [inhibitor, single point]",
CCCCc1ccc(NC(=S)NN2CCOCC2)cc1,"inconclusive: 8.91 µM [activator, partial curve, poor fit]",
CSc1cccc(NC(=O)c2ccc(Cl)nc2)c1,"inconclusive: 15.8 µM [activator, single point]",
COc1ccc(CN(CC(=O)NCc2ccc(F)cc2)C(=O)CCC(=O)Nc2nccs2)cc1,"inconclusive: 6.31 µM [inhibitor, single point]",
CC(=O)Nc1cccc(NC(=O)C2CCCN2C(=O)Nc2ccccc2C)c1 (centres undefined),"inconclusive: 0.092 µM [inhibitor, full curve, poor fit]",
Cc1ccc(OCCSc2nc3ccc(NC(=O)c4ccc(F)cc4)cc3s2)cc1,,inconclusive: 12.2% [activator] [at 46.1 µM]
COCCn1c(=NC(=O)C2COc3ccccc3O2)sc2cc(S(N)(=O)=O)ccc21 (centres undefined),"inconclusive: 4.47 µM [inhibitor, partial curve, poor fit]",
Cc1nc2ccccn2c1C(=O)N/N=C/c1cc(C)n(-c2ccc(Br)cc2)c1C,inactive,
Cc1cc(=O)oc2c(C(=O)/C=C\c3cccs3)c(O)ccc12,"inconclusive: 15.8 µM [inhibitor, single point]",
Cc1ccccc1NS(=O)(=O)c1ccc(C(=O)NCC(c2ccccc2)N(C)C)cc1 (centres undefined),inactive,
CCc1ccc(CNC(=O)C2CCCN(S(=O)(=O)c3ccc4c(ccn4C)c3)C2)cc1 (centres undefined),"inconclusive: 7.08 µM [inhibitor, partial curve]",
CCCCNC(=S)N/N=C/c1sccc1C,"inconclusive: 1 µM [inhibitor, single point]",
COc1ccc(CNC(=O)CCc2nc(-c3ccc(OC)cc3)no2)cc1,"inconclusive: 6.31 µM [inhibitor, partial curve, poor fit]",
Cc1cc(=O)oc2cc(OCC(=O)OC(C)C(=O)Nc3ccc(S(N)(=O)=O)cc3)ccc12 (centres undefined),"inconclusive: 0.1 µM [inhibitor, full curve, poor fit]",
COc1ccccc1NC(=O)Nc1nn(C)c2cccc(N(C)C)c12,"inconclusive: 17.8 µM [inhibitor, partial curve, poor fit]",
CCc1noc(C)c1C(=O)N1CCCC1,inactive,
CCOC(=O)c1ccccc1NC(=S)N1CCN(C(=O)c2ccco2)CC1,"inconclusive: 10 µM [inhibitor, partial curve, poor fit]",
COc1ccc(OCc2nc(-c3ccc(-n4cccc4)cc3)no2)cc1,inactive,
O=C(COC(=O)Cc1ccsc1)Nc1ccccc1,inactive,
COc1cccc(-c2cn3ncsc3n2)c1,"inconclusive: 6.31 µM [activator, full curve]",
CCCOC1CCCN(C(=O)c2ccc3oc(C(C)C)nc3c2)C1 (centres undefined),inactive,
Cc1cc(C)cc(C(=O)N2CC(=O)Nc3ccccc32)c1,"inconclusive: 6.31 µM [inhibitor, single point]",
